Experimental data published in PubChem BioAssay AID587 (National Center for Advancing Translational Sciences (NCATS), 2007).
About 35 (0.06%) of roughly 59,000 compounds were called active. This list was built around the results that the source calls inconclusive (neither active nor inactive); the mix of calls is not that of the screen. Rule as the data show it: active = max dye-equivalent concentration above about 10 nM; inconclusive = between about 1.1 nM and that limit; inactive = weaker than that.

Assay: qHTS Assay for Spectroscopic Profiling in Texas Red Spectral Region
Conditions: Compound fluorescence, Texas Red channel, 547/618 nm; hits give high values
Outline: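 Dye-equivalent concentrations come from scaling compound signal (ex 547, em 618 nm) to six Texas Red standard concentrations run on every plate, after 15 min room-temperature incubation in pH 8.0 Tris (100 mM).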
With `O=C(CN1C(=O)NC2(CCCCCCC2)C1=O)NC(=O)NCc1ccco1` the max dye-equivalent concentration was inconclusive: 1.2 nM. For `C[C@@H]1C[C@H]2[C@@H]3C[C@H](F)C4=CC(=O)C=C[C@]4(C)[C@@]3(F)[C@@H](O)C[C@]2(C)[C@@]1(O)C(=O)CO`, the max dye-equivalent concentration was inconclusive: 1.1 nM. With `CN(C1=NC(=O)C(CC(=O)Nc2ccc(Br)cc2)S1)c1ccc(O)cc1` (stereo not drawn) the max dye-equivalent concentration was inconclusive: 2.3 nM. For `Cc1cc(Br)ccc1OCc1nc(-c2cccnc2)no1`, the max dye-equivalent concentration was inconclusive: 1.5 nM. In the case of `COc1ccccc1-n1cnc(N)c1C(=O)c1ccccc1`, the max dye-equivalent concentration is reported as inconclusive: 1.2 nM. With `[O-][n+]1onc2c1CCc1c-2nn(-c2ccccc2Cl)[n+]1[O-]` the max dye-equivalent concentration was inconclusive: 1.3 nM. For `Cc1cccc(OCC(=O)Nc2ccc(N3CCN(S(C)(=O)=O)CC3)cc2)c1`, the max dye-equivalent concentration was inconclusive: 1.8 nM. With `CC(=O)[C@H]([C@@H](c1ccccc1)N1CCOCC1)N1CCOCC1` the max dye-equivalent concentration was “inactive”. In the case of `CC(C)=CCNc1ncnc2c1c(C#N)cn2[C@H]1O[C@@H](CO)[C@@H](O)[C@@H]1O`, the max dye-equivalent concentration is reported as “inactive”. In the case of `C=C[C@]1(C)C[C@H](OC(=O)CO)[C@]2(C)C3C(=O)CC[C@]3(CC[C@H]2C)[C@H](C)[C@H]1O` (stereo partly drawn), the max dye-equivalent concentration is reported as “inactive”. In the case of `COc1ccc(OC)c(C(C(=O)NCc2ccco2)N(C(=O)Cn2nnc3ccccc32)C(C)C)c1` (stereo not drawn), the max dye-equivalent concentration is reported as inconclusive: 1.6 nM. With `CC1CCN(c2nncc3ccccc23)CC1` the max dye-equivalent concentration was inconclusive: 1.6 nM. With `COC(=O)c1cc(Br)c(=O)n(CC(C)C)c1` the max dye-equivalent concentration was inconclusive: 1.3 nM. In the case of `O=C(c1ccncc1)N1CCC[C@@]2(CCN(Cc3ccccc3)C2)C1`, the max dye-equivalent concentration is reported as “inactive”. For `CCOC(=O)c1c(CN2CCC(C)CC2)oc2ccc(OC)cc12`, the max dye-equivalent concentration was inconclusive: 1.4 nM. With `CS(=O)(=O)N(CCc1ccccc1)CC(=O)N1CCN(c2ccccc2)CC1` the max dye-equivalent concentration was inconclusive: 3 nM. In the case of `CC(=O)NCCNc1ncnc2ccc(-c3ccccc3C#N)cc12`, the max dye-equivalent concentration is reported as “inactive”. For `CC(C)NC[C@H](O)c1ccc2ccccc2c1`, the max dye-equivalent concentration was inconclusive: 1.7 nM. With `CN=C1SC(CC(=O)NCCc2ccc(OC)c(OC)c2)C(=O)N1C` (stereo not drawn) the max dye-equivalent concentration was inconclusive: 1.6 nM. In the case of `C=CCN1CCc2c(cc(O)c(O)c2Cl)[C@H](c2ccccc2)C1`, the max dye-equivalent concentration is reported as “inactive”. For `Cc1ccc(C(=O)C(NC(=O)c2ccco2)N2CCOCC2)cc1` (stereo not drawn), the max dye-equivalent concentration was inconclusive: 1.7 nM. For `Cc1cc(C)nc(Sc2ccc3nnc(C(F)(F)C(F)(F)C(F)(F)F)n3n2)n1`, the max dye-equivalent concentration was inconclusive: 1.3 nM. With `Cc1ccc(C2(C)NC(=O)N(Cc3c(C)noc3C)C2=O)cc1` (stereo not drawn) the max dye-equivalent concentration was inconclusive: 1.2 nM. For `CC1(c2ccccc2Cl)NC(=O)N(CC(=O)NC(=O)NCc2ccco2)C1=O` (stereo not drawn), the max dye-equivalent concentration was inconclusive: 1.2 nM. In the case of `CC1=C(C(=O)Nc2cccc(C)n2)C(c2ccc3c(c2)OCO3)C2=C(CC(c3ccco3)CC2=O)N1` (stereo not drawn), the max dye-equivalent concentration is reported as inconclusive: 1.3 nM. For `COC(=O)c1[nH]c(C)c(/C(O)=C2\C(=O)C(=O)N(CCN(C)C)C2c2ccc(OC)cc2)c1C` (stereo not drawn), the max dye-equivalent concentration was inconclusive: 1.1 nM. For `O=c1c2ccccc2nc(-c2ccoc2)n1CCc1ccccc1`, the max dye-equivalent concentration was inconclusive: 1.7 nM. With `COc1ccc2c(=O)c3c(=O)n(Cc4ccco4)c(C4CCCCC4)nc3oc2c1` the max dye-equivalent concentration was inconclusive: 1.7 nM. With `N=C(N)SCCc1ccccn1` the max dye-equivalent concentration was inconclusive: 2.2 nM. In the case of `CCOc1nc(-c2ccccc2)ccc1-c1noc(-c2ccc(OC)c(OC)c2)n1`, the max dye-equivalent concentration is reported as inconclusive: 2.3 nM. With `CCOC(=O)CSc1nnc([C@H](Cc2ccccc2)NC(=O)OC(C)(C)C)o1` the max dye-equivalent concentration was inconclusive: 2.7 nM. With `CCOC(=O)C1(CCSC)NC(c2ccco2)C2C(=O)N(C)C(=O)C21` (stereo not drawn) the max dye-equivalent concentration was “inactive”. With `CC(C)N(Cc1nc(-c2ccccc2)no1)C(=O)CN(C)S(=O)(=O)c1ccccc1` the max dye-equivalent concentration was inconclusive: 2.6 nM. With `CN(C)CCCN1C(=O)C(=O)/C(=C(/O)c2ccc3c(c2)OCO3)C1c1ccco1` (stereo not drawn) the max dye-equivalent concentration was inconclusive: 1.1 nM. With `CCOCCN(C=O)c1cccc(OC)c1` the max dye-equivalent concentration was “inactive”. For `O=C(CN1CCCCC1)Nc1ccc(S(=O)(=O)NC2CCCCC2)cc1`, the max dye-equivalent concentration was inconclusive: 2.1 nM. With `Cc1cccc(-n2nnnc2SCC(=O)NCCN2C(=O)CSC2=O)c1` the max dye-equivalent concentration was inconclusive: 1.6 nM. For `N[C@H](CCCP(=O)(O)O)C(=O)O`, the max dye-equivalent concentration was inconclusive: 1.2 nM. For `CCCCN(CC)S(=O)(=O)c1ccc(C(=O)Nc2nnc(-c3cccs3)o2)cc1`, the max dye-equivalent concentration was inconclusive: 1.6 nM. In the case of `C(CCc1nnc2c(n1)CCCC2)Cc1nnc2c(n1)CCCC2`, the max dye-equivalent concentration is reported as “inactive”. For `CCOC(=O)Cn1c(N2CCOCC2)nc2c1c(=O)[nH]c(=O)n2C`, the max dye-equivalent concentration was inconclusive: 1.1 nM. In the case of `CC(C)C(=O)N(Cc1ccc2c(c1)OCO2)Cc1ccccn1`, the max dye-equivalent concentration is reported as “inactive”. With `C=CCn1c(N)c(C(=O)Nc2ccccc2)c2nc3ccccc3nc21` the max dye-equivalent concentration was inconclusive: 1.6 nM. With `Cc1cc(=O)c2cc(Cl)ccc2[nH]1` the max dye-equivalent concentration was inconclusive: 1.5 nM. In the case of `CCOc1ccc(-c2nn3c(-c4ccc(F)cc4)nnc3s2)cc1`, the max dye-equivalent concentration is reported as inconclusive: 1.3 nM. With `CC(C)OP(=O)(c1ccc(N(C)C)cc1)C(O)c1ccccc1F` (stereo not drawn) the max dye-equivalent concentration was inconclusive: 1.2 nM. For `CCOC(=O)c1cnc(=O)[nH]c1C`, the max dye-equivalent concentration was inconclusive: 1.1 nM. For `COCCCCC(=NOCCN)c1ccc(C(F)(F)F)cc1`, the max dye-equivalent concentration was inconclusive: 1.3 nM. With `CC(C)NC(=O)CN1CCN(c2ncccn2)CC1` the max dye-equivalent concentration was inconclusive: 1.1 nM. In the case of `COCCNC(=O)c1ccccc1NC(=O)COc1ccccc1`, the max dye-equivalent concentration is reported as inconclusive: 2.1 nM. In the case of `O=C(O)c1ccccc1C1=Nc2ccc(O)cc2Oc2cc(O)ccc21`, the max dye-equivalent concentration is reported as active: 13 nM. For `COc1ccc2[nH]c(=O)c3c(c2c1)OC(C)(C)C=C3`, the max dye-equivalent concentration was inconclusive: 1.1 nM. With `COc1ccc(C(C)N2CC34C=CC(O3)C(C(=O)O)C4C2=O)cc1` (stereo not drawn) the max dye-equivalent concentration was inconclusive: 1.1 nM. With `CCNc1ncc2nc(CCc3ccccc3)c(=O)n(CCC#N)c2n1` the max dye-equivalent concentration was “inactive”. In the case of `CCCn1c(SCC(=O)NCc2cccs2)nc2c1c(=O)n(C)c(=O)n2C`, the max dye-equivalent concentration is reported as inconclusive: 1.1 nM. In the case of `Nc1nnc(SCC(=O)N2CCN(c3ccccc3)CC2)s1`, the max dye-equivalent concentration is reported as “inactive”. With `CCCS(=O)(=O)N1CCC(C(=O)NCCc2ccc(C)cc2)CC1` the max dye-equivalent concentration was inconclusive: 1.4 nM. With `COc1cc2nc(C3CCC3)n(NC(=O)C3CCCC(OC)C3)c(=O)c2cc1OC` (stereo not drawn) the max dye-equivalent concentration was inconclusive: 1.8 nM. In the case of `O=C(c1ccccc1Cl)N1CCc2ccccc2C1`, the max dye-equivalent concentration is reported as inconclusive: 3.2 nM. For `O=C(CNCC1CCCO1)Nc1ccccc1N1CCOCC1` (stereo not drawn), the max dye-equivalent concentration was inconclusive: 1.6 nM. With `CCC(=O)Nc1ccccc1-c1nnn(CC(=O)N2c3ccccc3CC2C)n1` (stereo not drawn) the max dye-equivalent concentration was inconclusive: 2.3 nM. In the case of `CN(C)CCCN=C(N)N`, the max dye-equivalent concentration is reported as inconclusive: 1.2 nM. With `Cc1nc2ccc(-n3ccc(=O)cc3)cc2s1` the max dye-equivalent concentration was inconclusive: 2.4 nM. In the case of `COc1ccc(S(=O)(=O)N2CCCN(CC(=O)C(C)(C)C)CC2)cc1`, the max dye-equivalent concentration is reported as inconclusive: 1.3 nM. For `O=C1Nc2ccccc2C12Nc1ccccc1S2` (stereo not drawn), the max dye-equivalent concentration was inconclusive: 1.8 nM. In the case of `COc1cc(C(=O)Nc2cc(Cl)ccc2C)c(-n2cnnn2)cc1OC`, the max dye-equivalent concentration is reported as inconclusive: 1.3 nM. In the case of `COc1ccc(-n2c(=O)c(-c3cc(F)cc(F)c3)nc3cnc(N(C)C)nc32)cc1`, the max dye-equivalent concentration is reported as “inactive”. In the case of `CC1=C(C(=O)Nc2ccccc2C)C(c2ccc(C)o2)C2=C(CCCC2=O)N1` (stereo not drawn), the max dye-equivalent concentration is reported as inconclusive: 1.7 nM. In the case of `CCCc1cc(=O)[nH]c(SCC(=O)N(Cc2ccccc2)C(C)C)n1`, the max dye-equivalent concentration is reported as “inactive”. In the case of `CN(C)c1ccc(NC(=O)CSc2nc3ccccc3c(=O)n2C2CCCCC2)cc1`, the max dye-equivalent concentration is reported as inconclusive: 1.6 nM. For `Cn1c(C(=O)O)cc2cc(F)ccc21`, the max dye-equivalent concentration was inconclusive: 5.5 nM. For `COc1cccc(-c2cc(C(=O)Nc3c(C)nn(Cc4ccccc4)c3C)no2)c1`, the max dye-equivalent concentration was inconclusive: 2.2 nM. With `COC(=O)C(C)NC(=O)C12CC3CC(CC(C3)C1)C2` (stereo not drawn) the max dye-equivalent concentration was inconclusive: 1.8 nM. In the case of `COc1ccc(Oc2ncc3nc(-c4ccccc4)c(=O)n(Cc4cccs4)c3n2)cc1`, the max dye-equivalent concentration is reported as “inactive”. With `CN(C)CCCN1c2ccccc2Sc2ccc(C(F)(F)F)cc21` the max dye-equivalent concentration was inconclusive: 1.2 nM. For `O=C(NCc1ccco1)c1ccccc1NS(=O)(=O)c1ccc2c(c1)OCCO2`, the max dye-equivalent concentration was inconclusive: 1.6 nM. For `C=CCn1c(O)c(CN2CCN(Cc3ccccc3)CC2)c(C)c(C#N)c1=O`, the max dye-equivalent concentration was “inactive”. With `CCN(CC(=O)N1CCOCC1)S(=O)(=O)c1ccc(C)cc1` the max dye-equivalent concentration was inconclusive: 1.4 nM. In the case of `CC1Cn2c(nc3c2c(=O)[nH]c(=O)n3C)O1` (stereo not drawn), the max dye-equivalent concentration is reported as inconclusive: 1.2 nM. For `O=c1cc(O)cc(/C=C\c2ccc(O)c(O)c2)o1`, the max dye-equivalent concentration was “inactive”. For `CCCCCCCCCC(=O)N[C@@H](CN1CCOCC1)[C@@H](O)c1ccccc1`, the max dye-equivalent concentration was “inactive”. For `CCOc1ccc(-c2n[nH]c(C)c2Oc2ccccc2OC)c(O)c1`, the max dye-equivalent concentration was inconclusive: 1.1 nM. In the case of `Cc1cnc(C(=O)Nc2nnc(C)s2)cn1`, the max dye-equivalent concentration is reported as inconclusive: 1.2 nM. For `CC(C(=O)N1CCOCC1)N1c2cccc3cccc(c23)S1(=O)=O` (stereo not drawn), the max dye-equivalent concentration was “inactive”. With `CC(=O)Nc1cccc(-c2nc3ccc(NC(C)=O)cc3[nH]2)c1` the max dye-equivalent concentration was inconclusive: 1.7 nM. In the case of `Cc1cc(/C=C(/C#N)c2cccc(F)c2)c(C)n1-c1cccnc1`, the max dye-equivalent concentration is reported as inconclusive: 1.8 nM. With `CCOc1ccc2c(c1)N(C(=O)CN1C(=O)CCC1=O)C(C)(C)C=C2C` the max dye-equivalent concentration was inconclusive: 1.2 nM. For `O=C(O)c1nc2nc(Cl)c(Cl)nc2[nH]1`, the max dye-equivalent concentration was inconclusive: 1.7 nM.
